Marks after values point to notes of the source that are not given here.
Assay: Body weight after two months of diet and ARI treatment
Type: in vivo, rat
Conditions: Ponalrestat 50 mg/kg daily oral gavage, mean ± SD

O=C(O)Cc1nn(Cc2ccc(Br)cc2F)c(=O)c2ccccc12 [Ponalrestat, 3-(4-bromo-2-fluorobenzyl)-4-oxo-3H-phthalazin-1-ylacetic acid]
Body wt. (40% D-galactose diet rats): 291 ± 14^b g | Body wt. (control diet rats): 289 ± 19^b g
